Values from PubChem BioAssay AID1259405 (NCATS, 2018).
Purpose: 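Mouse-designed siRNAs used to find CHO productivity engineering targets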 (primary screen). Cell system: Chinese hamster CHO-K1 ovary cells with stable secreted eGFP expression. Knock-down reagent: single siRNA against mouse genes, 0.8 pmol siRNA per well (2 µl of 400 nM stock). Time to read-out: 3 days. Read-out: 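Percent of the per-plate non-targeting control median for intracellular GFP per well by laser scanning cytometry and for cell viability by ATP luminescence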. Direction: GFP, % of control: higher = more GFP per well, higher productivity; viability (ATP), % of control: higher = more viable cells (more ATP). Hit rule: 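Called active when intracellular GFP, relative to negative control, is at or above 120%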.
Shown is a random part of about 50,000 deposited reagents. About 4,000 of them (8%) were called active. 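Mouse siRNA library applied to hamster cells; one well for each siRNA.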 The numbers tell different reagents against one gene apart. No sequences are given here.

Pml #1
- GFP, % of control: 50.2
- viability (ATP), % of control: 70.2
- activity call: inactive

Pml #2
- GFP, % of control: 93.9
- viability (ATP), % of control: 82.2
- activity call: inactive

Pml #3
- GFP, % of control: 36.8
- viability (ATP), % of control: 57.5
- activity call: inactive

Taf1d #1
- GFP, % of control: 77
- viability (ATP), % of control: 67.9
- activity call: inactive

Taf1d #2
- GFP, % of control: 69.6
- viability (ATP), % of control: 97.6
- activity call: inactive

Taf1d #3
- GFP, % of control: 75.8
- viability (ATP), % of control: 71.5
- activity call: inactive

Fermt2 #1
- GFP, % of control: 95.8
- viability (ATP), % of control: 76.1
- activity call: inactive

Fermt2 #2
- GFP, % of control: 39.3
- viability (ATP), % of control: 77.2
- activity call: inactive

Fermt2 #3
- GFP, % of control: 74.9
- viability (ATP), % of control: 91.7
- activity call: inactive

Plin2 #1
- GFP, % of control: 97.9
- viability (ATP), % of control: 75.4
- activity call: inactive

Plin2 #2
- GFP, % of control: 120
- viability (ATP), % of control: 76.7
- activity call: active

Plin2 #3
- GFP, % of control: 53.5
- viability (ATP), % of control: 81.5
- activity call: inactive

Kcnn4 #1
- GFP, % of control: 98.6
- viability (ATP), % of control: 91.5
- activity call: inactive

Kcnn4 #2
- GFP, % of control: 71.6
- viability (ATP), % of control: 62.8
- activity call: inactive

Kcnn4 #3
- GFP, % of control: 82.9
- viability (ATP), % of control: 86.8
- activity call: inactive

Mier3 #1
- GFP, % of control: 90.8
- viability (ATP), % of control: 50.4
- activity call: inactive

Mier3 #2
- GFP, % of control: 105
- viability (ATP), % of control: 75.4
- activity call: inactive

Mier3 #3
- GFP, % of control: 106
- viability (ATP), % of control: 102
- activity call: inactive

Limited to “GFP, % of control” (3 entries from above):
Pml #1	50.2
Pml #2	93.9
Pml #3	36.8
